Data reported in US9610263B2, “Method of modulating membrane potential of a cell” (VERSITECH LIMITED, priority 2007, dated 2017).
For part of these data: At least one compound was matched to its structure with a doubt left. Some of these results come from one statement about several compounds together.

Experiments:
[1] = pH-stat fluorometric transport assay in HPTS-loaded liposomes (chloride release); type: biochemical; details: LUVs of 100 nm; NaCl extra- and intravesicular buffers
[2] = Liposome membrane potential assay with safranin O (Na2SO4 inside, NaCl outside); type: biochemical; details: EYPC liposomes containing Na2SO4 in isotonic NaCl
[3] = tested on: Madin-Darby canine kidney (MDCK) cells; assay: Membrane potential of living cells with bis-oxonol (DiBAC4(3)); type: cell-based; details: MDCK cells, 10 μM added alone
Text: To determine the potential of Example 2 for application in biological and medicinal science, Example 2 was investigated for incorporating into the plasma membranes of living cells and, thereby, modulating their membrane potentials by increasing chloride permeability of the cell membranes. A potential-sensitive dye his-oxonal was used to measure the relative changes in membrane potential of the Madin-Darby canine kidney (MDCK) cells, a model for the renal distal tubule and collecting duct that secrete chloride ions. An increase in fluorescence of bis-oxonal indicated cell depolarization while a decrease indicated hyperpolarization. […] This depolarization effect could be ascribed to that the chloride equilibrium potential (ECl) was higher than the resting membrane potential in MDCK cells. Thus, the opening of chloride channels shifted the membrane potential towards the ECl.
In summary, FIG. 14A-E show the effects of adding different substances, including Example 2, on the membrane potential of Madin-Darby canine kidney (MDCK) cells. Membrane potentials of MDCK cells were monitored by the changes of emission intensity of the potential-sensitive dye bis-oxonol (DiBAC4(3)). The increase in the fluorescence intensity indicates depolarization. […] Each point in FIG. 14A-E represents the mean±s.e. (n=20-80 cells in 4-6 experiments).

Row | SMILES | chloride release / exchange between extra- and intravesicular electrolytes [1] | fluorescence intensity of safranin O (membrane potential of liposomes) [2] | membrane potential (bis-oxonol fluorescence) [3] | membrane potential (bis-oxonol fluorescence) ([3]; listed as foskolin)
1 | CC(C)CNC(=O)[C@H](CC(C)C)NC(=O)Nc1ccccc1 [Example 23] | can also mediate chloride transport across lipid bilayers of chloride-containing liposomes with different efficiencies | can also modulate membrane potentials of liposomes with different efficiencies |  | 
2 | CC(C)CNC(=O)[C@H](CC(C)C)NC(=S)Nc1ccccc1 [Example 24] | can also mediate chloride transport across lipid bilayers of chloride-containing liposomes with different efficiencies | can also modulate membrane potentials of liposomes with different efficiencies |  | 
3 | CC(C)CNC(=O)[C@H](CC(C)C)NC(=O)Nc1cccc(NC(=O)N[C@@H](CC(C)C)C(=O)NCC(C)C)c1 [Example 25] | can also mediate chloride transport across lipid bilayers of chloride-containing liposomes with different efficiencies | can also modulate membrane potentials of liposomes with different efficiencies |  | 
4 | CC(C)CNC(=O)[C@H](CC(C)C)NC(=S)Nc1cccc(NC(=S)N[C@@H](CC(C)C)C(=O)NCC(C)C)c1 [Example 26] | can also mediate chloride transport across lipid bilayers of chloride-containing liposomes with different efficiencies | can also modulate membrane potentials of liposomes with different efficiencies |  | 
5 | CC(C)CNC(=O)[C@H](CC(C)C)NC(=O)Nc1ccc(NC(=O)N[C@@H](CC(C)C)C(=O)NCC(C)C)cc1 [Example 27] | can also mediate chloride transport across lipid bilayers of chloride-containing liposomes with different efficiencies | can also modulate membrane potentials of liposomes with different efficiencies |  | 
6 | CC(C)CNC(=O)[C@H](CC(C)C)NC(=S)Nc1ccc(NC(=S)N[C@@H](CC(C)C)C(=O)NCC(C)C)cc1 [Example 28] | can also mediate chloride transport across lipid bilayers of chloride-containing liposomes with different efficiencies | can also modulate membrane potentials of liposomes with different efficiencies |  | 
7 | CC(C)CNC(=O)[C@H](CC(C)C)NC(=S)Nc1cccc(N=C=S)c1 [Example 29] | can also mediate chloride transport across lipid bilayers of chloride-containing liposomes with different efficiencies | can also modulate membrane potentials of liposomes with different efficiencies |  | 
8 | CC(C)CNC(=O)[C@H](CC(C)C)NC(=O)c1ccccc1 [Example 30] | can also mediate chloride transport across lipid bilayers of chloride-containing liposomes with different efficiencies | can also modulate membrane potentials of liposomes with different efficiencies |  | 
9 | CC(C)CNC(=O)[C@H](ONC(=O)c1cccc(C(=O)NO[C@@H](C(=O)NCC(C)C)c2ccccc2)c1)c1ccccc1 [Example 31] | can also mediate chloride transport across lipid bilayers of chloride-containing liposomes with different efficiencies | can also modulate membrane potentials of liposomes with different efficiencies |  | 
10 | CC(C)CNC(=O)[C@@H](Cc1c[nH]c2ccccc12)ONC(=O)c1cccc(C(=O)NO[C@H](Cc2c[nH]c3ccccc23)C(=O)NCC(C)C)c1 [Example 32] | can also mediate chloride transport across lipid bilayers of chloride-containing liposomes with different efficiencies | can also modulate membrane potentials of liposomes with different efficiencies |  | 
11 | CC(C)CNC(=O)[C@@H](C)ONC(=O)c1cccc(C(=O)NO[C@H](C)C(=O)NCC(C)C)c1 [Example 33] | can also mediate chloride transport across lipid bilayers of chloride-containing liposomes with different efficiencies | can also modulate membrane potentials of liposomes with different efficiencies |  | 
12 | CC(C)CNC(=O)[C@@H](CCCCNC(=O)OC(C)(C)C)ONC(=O)c1cccc(C(=O)NO[C@H](CCCCNC(=O)OC(C)(C)C)C(=O)NCC(C)C)c1 [Example 34] | can also mediate chloride transport across lipid bilayers of chloride-containing liposomes with different efficiencies | can also modulate membrane potentials of liposomes with different efficiencies |  | 
13 | CC(C)CNC(=O)[C@@H](CCCCN)ONC(=O)c1cccc(C(=O)NO[C@H](CCCCN)C(=O)NCC(C)C)c1 [Example 35] | can also mediate chloride transport across lipid bilayers of chloride-containing liposomes with different efficiencies | can also modulate membrane potentials of liposomes with different efficiencies |  | 
14 | CC(C)CNC(=O)[C@@H](CO)ONC(=O)c1cccc(C(=O)NO[C@H](CO)C(=O)NCC(C)C)c1 [Example 36] | can also mediate chloride transport across lipid bilayers of chloride-containing liposomes with different efficiencies | can also modulate membrane potentials of liposomes with different efficiencies |  | 
15 | CC(C)CNC(=O)[C@@H](Cc1ccccc1)ONC(=O)c1cccc(C(=O)NO[C@H](Cc2ccccc2)C(=O)NCC(C)C)c1 [Example 37] | can also mediate chloride transport across lipid bilayers of chloride-containing liposomes with different efficiencies | can also modulate membrane potentials of liposomes with different efficiencies |  | 
16 | CC(C)CNC(=O)[C@@H](CC(=O)OC(C)(C)C)ONC(=O)c1cccc(C(=O)NO[C@H](CC(=O)OC(C)(C)C)C(=O)NCC(C)C)c1 [Example 38] | can also mediate chloride transport across lipid bilayers of chloride-containing liposomes with different efficiencies | can also modulate membrane potentials of liposomes with different efficiencies |  | 
17 | CC(C)CNC(=O)[C@@H](CC(=O)O)ONC(=O)c1cccc(C(=O)NO[C@H](CC(=O)O)C(=O)NCC(C)C)c1 [Example 39] | can also mediate chloride transport across lipid bilayers of chloride-containing liposomes with different efficiencies | can also modulate membrane potentials of liposomes with different efficiencies |  | 
18 | CC(C)CNC(=O)[C@@H](CCC(=O)OC(C)(C)C)ONC(=O)c1cccc(C(=O)NO[C@H](CCC(=O)OC(C)(C)C)C(=O)NCC(C)C)c1 [Example 40] | can also mediate chloride transport across lipid bilayers of chloride-containing liposomes with different efficiencies | can also modulate membrane potentials of liposomes with different efficiencies |  | 
19 | CC(C)CNC(=O)[C@@H](CCC(=O)O)ONC(=O)c1cccc(C(=O)NO[C@H](CCC(=O)O)C(=O)NCC(C)C)c1 [Example 41] | can also mediate chloride transport across lipid bilayers of chloride-containing liposomes with different efficiencies | can also modulate membrane potentials of liposomes with different efficiencies |  | 
20 | CSCC[C@@H](ONC(=O)c1cccc(C(=O)NO[C@H](CCSC)C(=O)NCC(C)C)c1)C(=O)NCC(C)C [Example 42] | can also mediate chloride transport across lipid bilayers of chloride-containing liposomes with different efficiencies | can also modulate membrane potentials of liposomes with different efficiencies |  | 
21 | C=C[C@@]1(C)CC(=O)[C@]2(O)[C@@]3(C)[C@@H](O)CCC(C)(C)[C@@H]3[C@H](O)[C@H](OC(C)=O)[C@@]2(C)O1 [forskolin, reference compound] |  |  | moderate increase in fluorescence of bis-oxonal | significant depolarization
